In article PMC3377984 (Journal of Molecular Neuroscience, 2012) one finds Papp A→B data, which are given here for 1 molecule.

The nature of the data set: Caco-2 bidirectional permeability assay. Format: in vitro ADME. As to conditions: human. Background: Passage across Caco-2 layers is used to estimate intestinal permeability.

One may read the Papp A→B as the apparent permeability from the apical to the basolateral side of a cell layer. Low values mean poor permeation, high ones ready permeation. The molecule `CC(C)NCC(O)COc1ccc(CC(N)=O)cc1` (stereo not shown) [Atenolol control, Atenolol] came in with a Papp A→B at 5 µM of 0.23 ×10⁻⁶ cm/s.
